Reference: patent publication EP1204866B1, “IMMUNOASSAY FOR PESTICIDES AND THEIR DEGRADATION PRODUCTS” (priority 1999, dated 2001)
“Also recorded” adds a separate entry of the source. At least one compound was matched to its structure with a doubt left.

What was measured:
[1] = system: Balb/c×CF1 F1-hybrid mice; experiment: immunisation of mice with hapten-polymer carrier complex and generation of monoclonal antibodies; assay type: in vivo
Protocol: Live mice were primed for immunisation by an intraperitoneal injection of live BCG-vaccine one month before immunisation. The antigen (hapten-OA complex), once adsorbed onto Al(OH)3, was injected intraperitonally and test bleedings were collected. When antibody titre's exceeded 1:2000, mice were considered ready for fusion and the method described by Köhler and Milstein (1975) was employed with minor modifications. Monoclonal antibodies were selected on basis of titre, affinity and specificity. Selected clones were recloned until monoclonality and stored frozen at -80 °C.
Ten to twelve weeks old female Balb/c×CF1 F1-hybrid mice were used for immunisation. 5 One month before immunisation they were primed with 0.2 mL live BCG-vaccine intraperitonally. The antigen ([…] carrier/immunogen) was absorbed onto Al(OH)3 as an adjuvant. The total volume of vaccine per immunisation was 200 µL, containing […] of antigen and […] of adjuvant. The antigen was injected intraperitonally with 2-weeks intervals. Test bleedings were collected 10 days after immunisation and assayed in ELISA.
When antibody titre's exceeded 1:2000, mice were regarded ready for fusion. The procedure as described by Köhler and Milstein (1975) was employed with minor modifications. Monoclonal antibodies were selected on basis of titre, affinity and specificity. […]

HYB 273-1 = experiment: competitive ELISA (immunoassay) for BAM with monoclonal antibody on hapten-coated microtitre plates; assay type: binding, mice; details: IC50 of BAM divided by IC50 of analyte x 100; analytes assayed up to 100 mg/L; antibody HYB 273-1
Protocol: The cross reactivity of an assay is a measure of its specificity for the analyte relative to similar or related compounds. It is useful in assessing its accuracy in crude samples with several potential haptens. Standard curves based on the 4-parameter-logistic equation (eq 1) were generated for a series of analytes (Table 3) in the range 100 to 0 mg/L (10-fold titrations). The IC50 value (C*) for each analyte was then compared with the IC50 of BAM (C) in equation 3. CR = ((C)/(C*)) × 100% [formula] • CR: cross-reactivity [%] • C: value of IC50 for BAM [µg/L] • C*: value of IC50 for cross-reacting analyte [µg/L]
Standards were used to generate comparative standard curves. […] The colour development was stopped using acid and the absorbance read at 450 nm.
The standards were used to generate a semi-log graph based on the 4-parameter-logistic method (Rodbard, 1974: equation 1). Y = ((A-D))/([1+(((X)/(C)))^B]) + D [formula] • X: concentration of analyte (µg/L). • Y: absorbance at 450 nm (A450). • A: maximum absorbance (upper asymptote). • D: minimum absorbance (lower asymptote). • C: midpoint between A and D. Extrapolation to x-axis yields the value of IC50 (µg/L). • B: slope for the transition between A and D […]
These calculations were executed automatically by the software package SOFTmax® PRO Version 2.2 upon reading the microtitre plates. […]

Row | Compound | suitability of the antibodies generated for the immunoassay of BAM / dichlorbenil ([1]; antibodies raised from the hapten-carrier complex) | immunoresponse on immunisation ([1]; hapten bound to polymer carrier (ovalbumin), mice) | cross-reactivity (HYB 273-1)
1 | O=C(CCCCCNC(=O)c1c(Cl)cccc1Cl)ON1C(=O)CCC1=O [EQ-0025, succinimidyl-N-(2,6-dichlorobenzoyl)-6-amino-hexanoate] | none of the produced antibodies were able to detect free dichlorbenil nor its main degradation product, namely BAM; also recorded: assay results were poor | able to induce strong immunoresponse and several clones were generated | –
2 | N#Cc1c(Cl)cccc1Cl [dichlorbenil, dichlorobenzonitrile] | – | – | no measurable cross-reactivity
